Results are given in words; binding and its absence hold for the method and conditions named. Some results given as binding are weak or reduced against the parent protein; the word gives no strength.
What was measured:
[1] = molecular target: T1, human PCSK9 (human, UniProt Q8NBP7 31-692); experiment: PCSK9:ATI-972 FRET assay, 5 nM human PCSK9; displaced competitor: biotinylated ATI-972
[2] = molecular target: T1, human PCSK9; experiment: PCSK9:EGFA FRET assay, 5 nM PCSK9; displaced ligand: EGFA peptide

By UniProt entry, the sequences of proteins in these tests, tags left out. Residues count along the entry.
UniProt Q8NBP7, residues 31-692: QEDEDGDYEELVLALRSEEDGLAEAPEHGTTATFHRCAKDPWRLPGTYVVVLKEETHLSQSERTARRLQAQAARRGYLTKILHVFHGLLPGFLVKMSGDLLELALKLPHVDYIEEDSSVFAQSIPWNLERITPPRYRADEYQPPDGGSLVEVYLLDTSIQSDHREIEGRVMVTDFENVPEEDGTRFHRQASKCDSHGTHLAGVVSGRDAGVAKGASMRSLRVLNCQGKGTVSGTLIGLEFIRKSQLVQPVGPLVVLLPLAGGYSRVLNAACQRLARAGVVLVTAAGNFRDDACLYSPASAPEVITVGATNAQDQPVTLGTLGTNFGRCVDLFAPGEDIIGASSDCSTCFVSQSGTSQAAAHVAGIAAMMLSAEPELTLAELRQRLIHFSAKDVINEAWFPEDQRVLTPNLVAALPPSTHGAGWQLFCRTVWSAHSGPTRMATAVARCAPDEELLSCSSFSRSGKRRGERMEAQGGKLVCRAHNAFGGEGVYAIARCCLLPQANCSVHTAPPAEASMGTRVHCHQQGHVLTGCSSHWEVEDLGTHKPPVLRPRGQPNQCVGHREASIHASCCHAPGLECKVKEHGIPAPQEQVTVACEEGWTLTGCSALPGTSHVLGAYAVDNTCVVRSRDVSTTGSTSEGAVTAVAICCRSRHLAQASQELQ

binding [1] | binding [2] | Binder
binds | binds | ATI-1081 (designed binder, No Fc) MGVSDVPRDLEVVAATPTSLLISWVPPSDDYGYYRITYGETGGNSPVQEFTVPIGKGTATISGLKPGVDYTITVYAVEFPWPHAGYYHRPISINYRTEIDKPSQHHHHHH
binds | binds | ATI-1174 (designed binder, pegylated (site and PEG size not stated), also called pegylated anti-PCSK9 Adnectin) MGVSDVPRDLEVVAATPTSLLISWVPPSDDYGYYRITYGETGGNSPVQEFTVPIGKGTATISGLKPGVDYTITVYAVEFPWPHAGYYHRPISINYRTEIEKPCQ

Reference: patent US20210122805A1 (Bristol-Myers Squibb, published 2021)
